The values that follow come from patent US20180142018A1 (NOVIMMUNE, published 2018).

First the molecules themselves.
B1: 7F11 antibody (antibody, human IgG1, V domains shown)
VH: EVQLVQSGAEVKKPGESLKISCKGSGYSFTSYWIGWVRQMPGKGLEWMGIIYPGDSDTRYSPSFQGQVTISADKSISTAYLQWSSLKASDTAMYYCARGVSGIYNLHGFDIWGQGTLVTVSS
VL: DIQMTQSPSSLSASVGDRVTITCRASQSISSYLNWYQQKPGKAPKLLIYAASSLQSGVPSRFSGSGSGTDFTLTISSLQPEDFATYYCQQGMWDNPFTFGQGTKVEIK
notes: also called human IgG1 7F11 anti-CD19 antibody
B2: 9G8 antibody (antibody, human IgG1, V domains shown)
VH: B1 VH
VL: B1 VL with M92R, W93F, D94G, N95S
notes: also called human IgG1 9G8 anti-CD19 antibody
B3: 5F5 antibody (antibody, human IgG1, V domains shown)
VH: B1 VH with V100I
VL: B1 VL with G91A, M92S, W93L, N95S, F97L
notes: also called human IgG1 5F5 anti-CD19 antibody
B4: F6 antibody (antibody, human IgG1, V domains shown)
VH: EVQLVQSGAEVKKPGESLKISCKGSGYSFTSYWIGWVRQMPGKGLEWMGIIYPGDSDTRYSPSFQGQVTISADKSISTAYLQWSSLKASDTAMYYCARVWYYDFWSGADAFDIWGQGTLVTVSS
VL: EIVMTQSPATLSVSPGERATLSCRASQSVSSNLAWYQQKPGQAPRLLIYGASTRATGIPARFSGSGSGTEFTLTISSLQSEDFAVYYCQQGSLEAPQTFGQGTKVEIK
notes: also called human IgG1 F6 anti-CD19 antibody

Residue numbers refer to the chain shown, from its start. No constants are given. Whether binding was seen depends on the method and setting. Some entries that bind do so weakly or less than the wild type.

The first test has as its target cynomolgus CD19 (cynomolgus monkey). Put plainly: FACS on CHO cells transfected with cynomolgus CD19.
Regarding B1, the binding entry is reported as “binds”.
The same measure, in the same setting: the same measure for B2: “binds”.
Still for that read-out and setting: the same measure for B3: “binds”.
As for B4, the binding result is “binds”.

Another test has the same target. Briefly: FACS on cynomolgus PBMC gated on CD20+ B lymphocytes, 30 and 3 µg/mL.
B1: the binding entry is recorded as “binds”.
The same measure, in the same setting: in the case of B2 it was “binds”; in that of B3, “binds”; in that of B4, “binds”.
